Reference: patent US20190008961A1, “COMPOUNDS AND METHODS FOR INCREASING TUMOR INFILTRATION BY IMMUNE CELLS” (THE BROAD INSTITUTE, INC., priority 2016, published 2019)
At least one compound was matched to its structure with a doubt left.

Key:
[1] = other studies, Yang et al. (2014); cited from earlier work
[2] = system: human umbilical vein endothelial cells (HUVEC); test: migration counter-screen on HUVEC; type: cell-based; details: compared with MSC+MDA co-cultures
[3] = system: Hs578Bst, Hs67 and CD34+ hematopoietic cells; test: viability, Cell Titer Glo, further stromal and hematopoietic cells; type: cell-based
[4] = system: stromal cell-lines; test: viability of cell-lines derived from breast cancers or stroma; type: cell-based; details: FIG. 5B
[5] = system: cancer-associated fibroblasts; test: viability of primary patient derived cells; type: cell-based; details: FIG. 5A
[6] = system: arachidonic acid metabolites in MDA-MSC co-cultures; test: unbiased lipid metabolite profiling (LC-MS); type: cell-based
[7] = system: MSC+MDA co-cultures (GFP-labeled MDA-MB-231 breast cancer cells with MSCs); test: modified wound-healing assay: MSC-promoted MDA migration; type: cell-based, human; details: MSC and MDA-GFP co-culture 3:1

COC(=O)c1ccc([C@@H]2c3[nH]c4ccccc4c3C[C@@H](C(=O)OC)N2C(=O)CCl)cc1 [RSL3]
efficacy of intra-tumoral administration [1]: effective | inhibition of HUVEC cell migration [2]: not that of HUVEC cells | loss of viability [3]: loss of viability with RSL3 concentrations similar to those for MSCs and WI38 fibroblasts | sensitivity of stromal cell-lines versus breast cancer cell-lines [4]: more sensitive | selectivity of viability inhibition, cancer-associated fibroblasts over breast cancer cells [5]: selective inhibit the viability of cancer-associated fibroblasts over breast cancer cells | 5-hydroxyeicosatrienoic acid (5-HETE) level ([6]; 10 μM, 6 hours, vs DMSO): Increases | 14,15-epoxyeicosatrienoic acid (14,15-EET) level ([6]; 10 μM, 6 hours, vs DMSO): Increases | leukotriene B4 (LTB4) level ([6]; 10 μM, 6 hours, vs DMSO): significantly increased | prostaglandin E2 (PGE2) level ([6]; 10 μM, 6 hours, vs DMSO): Increases | levels of lipoxygenase, cyclooxygenase and epoxygenase metabolites ([6]; both MDA and MSC cells, FIGS. 11D-11F): increases | inhibition of MSC-promoted MDA migration [7]: inhibiting MSC-promoted MDA migration
